# Assay results reported in the supplement of paper PMC12067093, “Discovery and optimisation of a covalent ligand for TRIM25 and its application to targeted protein ubiquitination” (Chemical Science, 2025).
# Some of the results follow.
# Compound: CC1Cc2ccccc2N1C(=O)C1CCCN(C1)C(=O)CCl (mixture of isomers) [TRIM25 ligand 11 (diastereomer mixture)]
# Assay: probe-labelled cysteine peptide fold change vs DMSO (competition) (log2 fold change); higher = less target engagement (more negative = stronger competition)
# Conditions: 10 µM; THP-1; incubation time: 4 h
# 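Further: competitive chemoproteomic profiling in live THP-1 cells with an iodoacetamide desthiobiotin (IA-DTB) probe, comparing probe-labelled peptide intensities in compound-treated cells against DMSO-treated controls.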
row,Target,probe-labelled cysteine peptide fold change
1,PPWD1_Q96BP3_287_AYPTSVCFSPDGK (UniProt Q96BP3),0.141
2,PPP3CA_Q08209_88_NLLDIDAPVTVCGDIHGQFFDLMK (UniProt Q08209),0.14
3,PPP1R12C_Q9BZL4_211_CWLNGGAMPEAR (UniProt Q9BZL4),-0.0694
4,PRDX4_Q13162_245_HGEVCPAGWKPGSETIIPDPAGK (UniProt Q13162),-0.04
5,PRDX4_Q13162_51_EEECHFYAGGQVYPGEASR (UniProt Q13162),0.0376
6,PPT1_P50897_46_ALQHLDPPAPLPLVIWHGMGDSCCNPLSMGAIK (UniProt P50897),0.0812
7,PPP1CB_P62140_244_FLNRHDLDLICR (UniProt P62140),-0.0305
8,PPP1R8_Q12972_58_NPDLCDFTIDHQSCSR (UniProt Q12972),0.235
9,PPIL3_Q9H2H8_25+40_TCENFLALCASNYYNGCIFHR (UniProt Q9H2H8),-0.332
10,PPIL4_Q8WUA2_392_THHCSEEK (UniProt Q8WUA2),0.112
11,PPP1R11_O60927_62_CCCIYEK (UniProt O60927),-0.0503
12,PPP2CA_P67775_20_ELDQWIEQLNECK (UniProt P67775),-0.0442
13,PPP6R2_O75170_37_EHVTLQELMDEDDILQECK (UniProt O75170),0.0642
14,PPP1R21_Q6ZMI0_696_SVHFYAECR (UniProt Q6ZMI0),-0.013
15,PRCP_P42785_394_ELSDDCFQQWGVRPR (UniProt P42785),0.151
16,PRDX3_P30048_127_ANEFHDVNCEVVAVSVDSHFSHLAWINTPR (UniProt P30048),0.407
17,PRDX1_Q06830_71+83_KLNCQVIGASVDSHFCHLAWVNTPK (UniProt Q06830),-0.00206
18,PPP5C_P53041_382_NRQPPDSGPMCDLLWSDPQPQNGR (UniProt P53041),0.0714
19,PPWD1_Q96BP3_98_DVITHVVCTK (UniProt Q96BP3),0.131
20,PPP4R1_Q8TF05_174_VCPVLIELTAPDSNDDVK (UniProt Q8TF05),0.0227
21,PPME1_Q9Y570_347_FQMQVLPQCGHAVHEDAPDK (UniProt Q9Y570),-0.064
22,PRDX1_Q06830_83_LNCQVIGASVDSHFCHLAWVNTPK (UniProt Q06830),0.095
23,PPP1R12C_Q9BZL4_297_LLAEHGGGMDSLTHAGQRPCDLADEEVLSLLEELAR (UniProt Q9BZL4),0.136
24,PPP1CC_P36873_202_IMRPTDVPDQGLLCDLLWSDPDK (UniProt P36873),-0.00289
25,PREX1_Q8TCU6_120_DFLAALEYCLHPEPQSQHELGNVFLK (UniProt Q8TCU6),0.176

# Same assay, conditions: 50 µM; THP-1; incubation time: 4 h
row,Target,probe-labelled cysteine peptide fold change
1,PPP1R27_Q86WC6_79_KVSLATIHPSGLAALHEAVLSGNLECVK (UniProt Q86WC6),-0.273
2,PPP6C_O00743_262_LVTVWSAPNYCYR (UniProt O00743),0.121
3,PRDX2_P32119_70_LGCEVLGVSVDSQFTHLAWINTPRK (UniProt P32119),0.00679
4,PRCP_P42785_233_SGPHCSESIHR (UniProt P42785),0.189
5,PPP1R18_Q6NYC8_611_ALIVDESCR (UniProt Q6NYC8),-0.185
6,PPP6R3_Q5H9R7_431_CQLIER (UniProt Q5H9R7),0.111
7,PPP1R3D_O95685_26_SLSCLSDLDGGVALEPR (UniProt O95685),-0.198
8,PPP1CB_P62140_201_RIMRPTDVPDTGLLCDLLWSDPDK (UniProt P62140),0.0628
9,PRDX3_P30048_229_AFQYVETHGEVCPANWTPDSPTIK (UniProt P30048),0.0626
10,PPP1R15B_Q5SWA1_686_IQETEDAIGYCLTFEHR (UniProt Q5SWA1),-0.272
11,PREPL_Q4J6C6_160_LDQPFIDCIR (UniProt Q4J6C6),0.0865
12,PRDX1_Q06830_71_KLNCQVIGASVDSHFCHLAWVNTPK (UniProt Q06830),0.16
13,PRDX2_P32119_172_LVQAFQYTDEHGEVCPAGWKPGSDTIKPNVDDSK (UniProt P32119),0.0191
14,PPP3R1_P63098_154_ISFEEFCAVVGGLDIHKK (UniProt P63098),-0.095
15,PPIL4_Q8WUA2_294_EEDCEK (UniProt Q8WUA2),0.00763
16,PPWD1_Q96BP3_287_AYPTSVCFSPDGK (UniProt Q96BP3),0.213
17,PPP3CA_Q08209_88_NLLDIDAPVTVCGDIHGQFFDLMK (UniProt Q08209),-0.0609
18,PPP1R12C_Q9BZL4_211_CWLNGGAMPEAR (UniProt Q9BZL4),-0.182
19,PRDX4_Q13162_245_HGEVCPAGWKPGSETIIPDPAGK (UniProt Q13162),-0.0318
20,PRDX4_Q13162_51_EEECHFYAGGQVYPGEASR (UniProt Q13162),0.0703

row,Target,probe-labelled cysteine peptide fold change
1,PPT1_P50897_46_ALQHLDPPAPLPLVIWHGMGDSCCNPLSMGAIK (UniProt P50897),-0.0671
2,PPP1CB_P62140_244_FLNRHDLDLICR (UniProt P62140),-0.0389
3,PPP1R8_Q12972_58_NPDLCDFTIDHQSCSR (UniProt Q12972),-0.0582
4,PPIL3_Q9H2H8_25+40_TCENFLALCASNYYNGCIFHR (UniProt Q9H2H8),0.0753
5,PPIL4_Q8WUA2_392_THHCSEEK (UniProt Q8WUA2),-0.0364
6,PPP1R11_O60927_62_CCCIYEK (UniProt O60927),0.00157
7,PPP2CA_P67775_20_ELDQWIEQLNECK (UniProt P67775),-0.2
8,PPP6R2_O75170_37_EHVTLQELMDEDDILQECK (UniProt O75170),-0.0464
9,PPP1R21_Q6ZMI0_696_SVHFYAECR (UniProt Q6ZMI0),0.0172
10,PRCP_P42785_394_ELSDDCFQQWGVRPR (UniProt P42785),0.151
11,PRDX3_P30048_127_ANEFHDVNCEVVAVSVDSHFSHLAWINTPR (UniProt P30048),0.0242
12,PRDX1_Q06830_71+83_KLNCQVIGASVDSHFCHLAWVNTPK (UniProt Q06830),0.141
13,PPP5C_P53041_382_NRQPPDSGPMCDLLWSDPQPQNGR (UniProt P53041),-0.22
14,PPWD1_Q96BP3_98_DVITHVVCTK (UniProt Q96BP3),0.214
15,PPP4R1_Q8TF05_174_VCPVLIELTAPDSNDDVK (UniProt Q8TF05),0.111
16,PPME1_Q9Y570_347_FQMQVLPQCGHAVHEDAPDK (UniProt Q9Y570),-0.103
17,PRDX1_Q06830_83_LNCQVIGASVDSHFCHLAWVNTPK (UniProt Q06830),0.129
18,PPP1R12C_Q9BZL4_297_LLAEHGGGMDSLTHAGQRPCDLADEEVLSLLEELAR (UniProt Q9BZL4),-0.278
19,PPP1CC_P36873_202_IMRPTDVPDQGLLCDLLWSDPDK (UniProt P36873),-0.0601
20,PREX1_Q8TCU6_120_DFLAALEYCLHPEPQSQHELGNVFLK (UniProt Q8TCU6),0.0217
